# Out of some 340,000 compounds screened, about 170 (0.05%) were called active. This list was built around the results that the source calls inconclusive (neither active nor inactive); the mix of calls is not that of the screen. Calls come from the whole dose curve; as a rule, active = well fitted inhibition curve with a large enough effect in the signal ratio, with a control signal flat (not every such curve was filed as active); inconclusive = small, poorly fitted or top-dose-only effect, or effect the other way, or a change in a side signal; inactive = flat fitted curve, though single readings scatter; the % refers to the signal ratio. Where the call is inconclusive, the potency comes from a doubtful curve fit.
# Assay: qHTS Assay to Find Inhibitors of Chronic Active B-Cell Receptor Signaling;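 for activity change, negative = inhibition: plate controls were basal doxycycline-induced cells for no effect and cells given 10 µM MG132 for full effect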
# Conditions: ABC-DLBCL IkBa-CBG/CBR reporter, luminescence ratio (green luciferase fused to IkBa over red control in TMD8 lymphoma cells), 4 h; activity change, negative = inhibition: at 46.1 µM (top of the series) unless noted
# Method in brief: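 Concentration-response series (up to 46 uM) were applied to TMD8 dual-reporter cells for 4 h at 37C with doxycycline. Green/red ratio, after filter-overlap correction, defined %Activity; red signal alone was normalised to basal cells and zero luminescence.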
# Potency is the fitted concentration of half-maximal effect.
SMILES,"activity change, negative = inhibition",Potency
O=[N+]([O-])c1ccc(-n2nnnc2-c2ccccc2)c([N+](=O)[O-])c1,inconclusive: 9.98%,–
Cc1cccc(OCC(=O)NCCNC(=O)c2ccccn2)c1,inconclusive: 0.0988%,–
CCCCNC(=S)NCC(c1ccccc1)c1c[nH]c2ccccc12 (stereo not given),inconclusive: -17.9%,–
CCC(O)(CC)C(=O)N/N=C/c1cc(Br)cc(Br)c1O,inconclusive: 21.3%,–
Oc1ccccc1Nc1ccccn1,inactive: 0.126%,–
Clc1ccccc1CSc1cc2c(nn1)-c1ccccc1CC2,inconclusive: 10.1%,–
CC(C)(C)c1ccc(Cc2n[nH]c(=S)[nH]c2=O)cc1,inactive: 2.41%,–
Cc1cnc(C(=O)Nc2ccc(OC(F)(F)F)cc2)cn1,inconclusive: 7.53%,–
CCOC(=O)c1c(NC(=O)C(NCCN(C)C)c2ccccc2)sc2c1CCCC2 (stereo not given),inconclusive: -16.1%,–
CCc1ccc(NC(=O)c2cc(C(C)C)on2)cc1,–,"inconclusive: 4.47 µM [falling, partial curve]"
COc1ccc(/C(C)=N/NC(=O)c2ccc(N(C)C)cc2)cc1,inconclusive: -10.1%,–
CC(c1ccccc1)C(Cc1nc2ccccc2[nH]1)c1nc2ccccc2[nH]1 (stereo not given),inactive: -1.91%,–
COc1ccc2nc(NC(=O)c3cccc(OCc4c(C)noc4C)c3)sc2c1,–,"inconclusive: 14.1 µM [falling, partial curve]"
Cc1ccc(NC(=O)c2ccc(C(C)(C)C)cc2)cc1-n1cnnn1,inactive: -13.7%,–
N#Cc1c(-c2ccco2)nc(SCC(=O)Nc2ccc(S(N)(=O)=O)cc2)[nH]c1=O,inconclusive: -22.3%,–
CCNC(=S)N1CCN(CCN2C(=O)c3cccc4cccc(c34)C2=O)CC1,inconclusive: 6.64%,–
CC1(C)OC(=O)N(NCc2ccccc2)C1(C)O (stereo not given),inconclusive: 2.13%,–
CCN1/C(=C/c2sc(-c3ccccc3C)c[n+]2C)Sc2ccccc21,inconclusive: 5.91%,–
CCc1c(C)sc(NC(=O)CC#N)c1C#N,inconclusive: 15.6%,–
CCOc1ccc(CNn2cnnc2)cc1,inactive: 4.71%,–
COC(=O)c1c(NC(=O)Cc2ccc(OC)c(S(=O)(=O)N3CCOCC3)c2)sc(C)c1C,inconclusive: 11.9%,–
O=[N+]([O-])c1ccc(Nc2c3ccccc3nc3ccccc23)cc1,inconclusive: 14.6%,–

# Reformatted as tab-separated lines: entries from further up
SMILES	activity change, negative = inhibition	Potency
CCCCNC(=S)NCC(c1ccccc1)c1c[nH]c2ccccc12 (stereo not given)	inconclusive: -17.9%	–
CCC(O)(CC)C(=O)N/N=C/c1cc(Br)cc(Br)c1O	inconclusive: 21.3%	–

# (listing goes on)

SMILES,"activity change, negative = inhibition",Potency
COc1ccc(OC)c(N/C(C)=C/C(=O)c2ccccc2)c1,inconclusive: 6.66%,–
COc1ccc(N2C(=O)C(Cc3ccccc3)NC2=S)cc1 (stereo not given),inconclusive: -5.17%,–
O=S(=O)(c1ccccc1)c1nc(-c2ccco2)oc1NCc1ccco1,–,"inconclusive: 3.66 µM [rising, full curve, poor fit]"
Cc1ccc(NC(=O)CN(C)C(=O)Cn2cc(C(F)(F)F)cc(Cl)c2=O)cc1,inconclusive: 2.9%,–
COc1ccc(CNC(=S)Nc2ccc(Br)cc2)cc1,–,"inconclusive: 11.2 µM [falling, single point]"
CC(=O)c1cccc(NC(=O)CNC(=O)c2sc3ccccc3c2Cl)c1,inactive: 0.367%,–
O=C(Nc1nnc(C(F)(F)F)s1)C1COc2ccccc2O1 (stereo not given),–,"inconclusive: 6.51 µM [falling, single point]"
Cc1ccc(OCc2n[nH]c(=S)n2C2CCCCC2)cc1,inactive: 14.9%,–
CCOc1ccccc1Nc1nc(-c2sc(NC(=O)c3ccc([N+](=O)[O-])cc3)nc2C)cs1,inconclusive: -11.7%,–
Cn1c(SCC(=O)c2ccc3c(c2)Cc2ccccc2-3)nnc1-c1cccc(N)c1,inactive: 6.31%,–
C=C1c2ccccc2NC(=O)N1c1ccc(OC)cc1,–,"inconclusive: 25.1 µM [falling, partial curve]"
COc1ccccc1NC(=O)Cn1cnc2c(cnn2-c2ccc(C)c(C)c2)c1=O,inactive: 2.49%,–
N/C(=N\OC(=O)CC1CCCCC1)c1cccc(Br)c1,inconclusive: 7.75%,–
O=C(CCCC(=O)OCC(=O)c1cccs1)Nc1ccc(Oc2ccccc2)cc1,inconclusive: -19.2%,–
CON(C)c1nc(OCCNC(=O)COc2ccc(Cl)cc2C)nc(N(C)C)n1,inconclusive: -18.4%,–
O=C(CNc1cccc2ccccc12)N/N=C/c1ccc([N+](=O)[O-])cc1,inconclusive: -12.3%,–
c1ccc(-c2sc3ccccc3c2-c2ccc(OCCN3CCCC3)cc2)cc1,inconclusive: -0.458%,–
CCCCCC[N+](C)(C)CCSSCC[N+](C)(C)CCCCCC,inconclusive: 2.03%,–
CCS(=O)(=O)c1ccc2oc(Nc3cccc(OC)c3)nc2c1,–,"inconclusive: 35.5 µM [falling, single point]"
CC1CCCN(C(C(=O)NC2CCCCC2)c2cc3c(cc2[N+](=O)[O-])OCO3)C1 (stereo not given),inconclusive: -16.4%,–
O=C1c2cccc(OCC(=O)N3N=C(c4cccs4)CC3c3ccc(F)cc3)c2CCN1Cc1ccccc1 (stereo not given),inconclusive: -6.54%,–
COc1ccc2nc(NC(=O)C3CC(=O)N(c4ccccc4)C3)sc2c1 (stereo not given),inconclusive: 11.7%,–

SMILES,"activity change, negative = inhibition",Potency
CC1(C)CC(=O)C/C(=N\NC(=S)NCc2ccccc2)C1,inactive: 5.99%,–
Cc1ccc(C2=CC(C)(c3ccc(C)cc3)Nc3nc(C(F)(F)F)nn32)cc1 (stereo not given),inactive: 8.66%,–
Cn1c(=N)n(CC(=O)c2ccc(Br)s2)c2ccccc21,inactive: -0.389%,–
O=C(C1c2ccccc2Oc2ccccc21)N1CCN(c2ccc(Cl)cc2)CC1,inactive: 1.92%,–
CN1CCc2c(sc(NC(=O)c3ccc4ccccc4c3)c2C(N)=O)C1,–,"inconclusive: 7.08 µM [rising, partial curve, poor fit]"
O=C(NCCCl)Nc1cccnc1Cl,inconclusive: -26.7%,–
O=C(CSc1ccc(Cl)cc1)Nc1ccc(-c2nc3ccccc3[nH]2)cc1,inactive: 5.02%,–
Cc1cccn2cc(CNS(=O)(=O)c3cccc(F)c3)nc12,inconclusive: 9.92%,–
CC(Oc1ccccc1)C(=O)N1CCC2(CC1)CC(=O)c1ccccc1O2 (stereo not given),inactive: 9.03%,–
CC(C)c1ccc(/C=C2\SC(=S)N(CC(=O)NCCCN3CCOCC3)C2=O)cc1,inactive: -1.25%,–
COc1ccccc1-c1sc2ccccc2c1-c1ccccc1OC,–,"inconclusive: 23.1 µM [rising, partial curve, poor fit]"
COc1cccc(NC(=O)Cc2csc(NC(=O)Nc3ccccc3OC)n2)c1,inconclusive: -0.216%,–
CCOC(=O)CN(C(=O)CSc1nnc2c(n1)[nH]c1ccc(OC)cc12)c1ccc(F)cc1,inconclusive: 5.61%,–
CC(=O)c1ccc(NC(=O)Nc2ccccc2)cc1,–,"inconclusive: 23.1 µM [falling, partial curve]"
Cc1ccc(NC(=S)N/N=C2/CCCc3c(C)cc(C)cc32)cc1,–,"inconclusive: 3.66 µM [rising, partial curve]"
Cc1ccc(NC(=O)CSc2nnc(-c3ccccn3)n2N)c(Br)c1,inconclusive: -2.05%,–
C=CCOC(=O)C1=C(C)N=C2SCCC(=O)N2C1/C=C/c1ccccc1 (stereo not given),inconclusive: -19.5%,–
CCC(C)Nc1nc(-c2c[nH]c3ccccc23)cs1 (stereo not given),–,"inconclusive: 12.6 µM [falling, partial curve]"
COC(=O)c1ccc(OCC(=O)c2ccc(O)cc2O)cc1,inconclusive: -18.1%,–
O=C(Nc1cccnc1)Nc1ccc(Cl)cc1Cl,inconclusive: 5.51%,–
ClCc1nnc(-c2cc3c(s2)CCCC3)o1,inconclusive: -27.3%,–
CCc1cc2c3c(c(=O)oc2cc1O)CCCC3,inactive: -0.536%,–

SMILES,"activity change, negative = inhibition",Potency
COc1ccc(-c2ccc(=O)n(Cc3cc(=O)n4ccccc4n3)n2)cc1,inconclusive: -10.1%,–
O=C(NCc1ccccc1)C(=O)NCC(c1ccco1)N1CCN(c2ccccc2F)CC1 (stereo not given),inconclusive: 1.41%,–
COc1ccc(/C=C(/NC(=O)c2ccccc2)C(=O)NC(Cc2c[nH]c3ccccc23)C(=O)O)cc1 (stereo not given),–,"inconclusive: 10 µM [falling, partial curve, poor fit]"
CCN(CC)C(=O)CC(c1cc(OC)c(OC)c(OC)c1)c1c(OC)cc(OC)c2ccc(=O)oc12 (stereo not given),inconclusive: -5.06%,–
CCOC(=O)C1(CCc2ccccc2)CCN(C(=O)C2=C(C)OCCO2)CC1,inconclusive: 4.61%,–
COc1ccc(NC(=O)c2cc3cccc(OC)c3oc2=Nc2ccc(C(=O)O)cc2)cc1OC,–,"inconclusive: 2.24 µM [falling, partial curve, poor fit]"
COc1ccc(-c2nc(SCC(=O)NC3CCCCC3)n[nH]2)cc1,inconclusive: -4.99%,–
O=c1[nH]c(=O)n(C2C[C@H](O)[C@@H](CO)O2)cc1C(F)(F)F (stereo not given in full),inconclusive: 7.52%,–
Cc1ccc(CNc2nc3ccccc3n2C)o1,inactive: 0.24%,–
CCOC(=O)C1=C(NC#N)OC(C)=C(C)C1c1ccc(O)cc1 (stereo not given),–,"inconclusive: 16.4 µM [falling, single point]"
COC(=O)[C@H](CCSC)NC(=O)Nc1ccc(C(C)C)cc1,inconclusive: 1.21%,–
CSc1cccc(NC(=O)/C=C/c2cccc(Cl)c2)c1,–,"inconclusive: 32.6 µM [falling, partial curve, poor fit]"
Clc1ccc(OCCOCCN2CCCCC2)c(Br)c1,inconclusive: -9.88%,–
Cc1ccc(-c2nc3cccnc3o2)cc1NC(=O)COc1ccc(Cl)cc1C,inactive: -0.814%,–
NS(=O)(=O)c1ccc(CCNC(=O)c2ccccc2-c2ccccc2)cc1,inconclusive: -0.381%,–
CC(C)(CNC(=O)c1cccc(NS(=O)(=O)c2ccc(Br)cc2)c1)N1CCOCC1,inactive: -0.669%,–
O=C(NCc1ccccc1)C12CC3CC(CC(C3)C1)C2,inconclusive: 14.9%,–
Cc1ccccc1C(=O)Nc1nnc(CC(=O)N/N=C/c2ccco2)s1,inconclusive: -10.4%,–
Cc1onc(-c2ccccc2Cl)c1C(=O)OCC(=O)Nc1cccc(S(=O)(=O)N(C)C)c1,–,"inconclusive: 14.1 µM [falling, partial curve, poor fit]"

# 3 of the compounds above, bar-delimited.
SMILES | activity change, negative = inhibition | Potency
COc1ccc(-c2ccc(=O)n(Cc3cc(=O)n4ccccc4n3)n2)cc1 | inconclusive: -10.1% | –
CCN(CC)C(=O)CC(c1cc(OC)c(OC)c(OC)c1)c1c(OC)cc(OC)c2ccc(=O)oc12 (stereo not given) | inconclusive: -5.06% | –
Clc1ccc(OCCOCCN2CCCCC2)c(Br)c1 | inconclusive: -9.88% | –

# — PubChem BioAssay AID493014 (National Center for Advancing Translational Sciences (NCATS), 2011)
